Reference: PubChem BioAssay AID504834 (National Center for Advancing Translational Sciences (NCATS), 2011)
About 22,000 (6.9%) of roughly 320,000 compounds were called active. Inconclusive means that the source gave no clear call. Such entries were picked first, then a sample of the others. The call rests on the fitted dose curve; in most records, active means well fitted inhibition curve with a large enough effect; inconclusive means small, poorly fitted or top-dose-only effect, or another doubt; inactive means no such curve, though single readings can be large or run the other way. Potencies beside an inconclusive call are fits to weak or partial responses and may not hold up.
On the % scale 0 is the no-effect control and ±100 the full control effect; potency means the concentration at half of the fitted maximal effect.

Assay: Primary qHTS for delayed death inhibitors of the malarial parasite plastid, 96 hour incubation
Settings: P. falciparum luciferase reporter growth; series mostly up to 28.7 µM; activity change, negative = inhibition: at the top concentration
Summary of the method: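 Luminescence readout: decreased luciferase signal marks inhibited growth of reporter-expressing P. falciparum in infected red cells (2% hematocrit, 0.05% parasitemia final), exposed to compound two generations (96 h, 37 C, 5% CO2).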
In the case of `CC(=O)Nc1ccc(NC(=O)COC(=O)c2ccco2)cc1`, the “activity change, negative = inhibition” value was inactive: 10.9%. For `O=C(NCCCN1CCCC1=O)C1CCN(S(=O)(=O)c2ccccc2)CC1`, the Potency was inconclusive: 18.5 µM [inhibitor, single point]. With `CCC1(c2ccccc2)NC(=O)N(CC(=O)N(C)Cc2c(F)cccc2Cl)C1=O` (configuration not stated) the Potency was inconclusive: 18.5 µM [inhibitor, single point]. For `COc1cccc(Cl)c1NC(=O)N1CCN(c2cc(C)nc3ccccc23)CC1`, the Potency was inconclusive: 8.28 µM [inhibitor, partial curve]. With `Cn1c(=O)c(=O)n(C)c2cc(S(=O)(=O)N3CCOCC3)ccc21` the Potency was inconclusive: 18.5 µM [inhibitor, single point]. In the case of `Cc1ccc2nc(-c3ccncc3)cc(-c3ccccc3)c2c1`, the Potency was active: 9.28 µM. With `COc1cccc(C(=O)OCC(=O)c2c[nH]c3ccccc23)c1O` the “activity change, negative = inhibition” value was inactive: 30.4%. For `O=C1NC(c2ccccc2Cl)=N/C1=C/c1ccco1`, the “activity change, negative = inhibition” value was inactive: -29.5%. In the case of `Cc1ccc(C(=O)NCC(=O)Nc2ncccc2C)s1`, the “activity change, negative = inhibition” value was inactive: 56.1%. With `Cc1ccc(NC(=O)c2cccc(F)c2)cc1S(=O)(=O)N1CCCCCC1` the Potency was inconclusive: 10.4 µM [inhibitor, single point]. For `COc1ccc(C(=O)OC2CCN(C)CC2)cc1`, the Potency was inconclusive: 13.1 µM [inhibitor, partial curve, poor fit]. For `Clc1ccc(N2CCCCCC2)nn1`, the Potency was inconclusive: 10.4 µM [inhibitor, single point]. With `CC(C)N1CN=C(Nc2nc3ccccc3o2)NC1` the Potency was inconclusive: 13.1 µM [inhibitor, partial curve, poor fit]. In the case of `Cc1ccc(C2/C(=C(/O)c3ccc4c(c3)CC(C)O4)C(=O)C(=O)N2CCCn2ccnc2)cc1` (configuration not stated), the Potency was inconclusive: 18.5 µM [inhibitor, single point]. For `CCOc1ccccc1N1CCN(C(=O)c2cn(CC3CCCCC3)nn2)CC1`, the Potency was inconclusive: 10.4 µM [inhibitor, single point]. In the case of `O=C(COC(=O)C1COc2ccccc2O1)NC(=O)NC1CCCCC1` (configuration not stated), the Potency was inconclusive: 0.465 µM [inhibitor, full curve, poor fit]. For `C(=N\NC1=NCCN1)/c1ccncc1`, the Potency was inconclusive: 18.5 µM [inhibitor, single point]. With `CNC(=S)Nc1cc(Cl)ccc1Oc1ccccc1` the “activity change, negative = inhibition” value was inactive: 18.4%. For `O=C1CC(c2ccccc2)=Nc2ccccc2N1Cc1ccccc1`, the Potency was inconclusive: 18.5 µM [inhibitor, single point]. In the case of `CCCN1CCc2c(sc(NC(=O)c3ccc(S(=O)(=O)N(C)c4ccccc4)cc3)c2C(N)=O)C1`, the Potency was active: 9.28 µM. In the case of `CC(O)CNc1nc2c(c(=O)n(C)c(=O)n2C)n1Cc1cccc(C(F)(F)F)c1` (configuration not stated), the “activity change, negative = inhibition” value was inactive: -4.06%. With `Cc1cc(OCC(=O)N2CCC(C(=O)NCC(C)C)CC2)c2c3c(c(=O)oc2c1)CCCC3` the Potency was inconclusive: 2.33 µM [inhibitor, partial curve, poor fit]. In the case of `COc1ccc(-n2c(-c3ccccc3)nnc2-c2ccc(Cl)cc2)cc1`, the “activity change, negative = inhibition” value was inactive: -24.1%. For `CCC(C)C(=O)Nc1nc(C)c(-c2csc(Nc3ccc(Cl)cc3)n2)s1` (configuration not stated), the Potency was active: 9.28 µM. For `CCc1cc(C(=O)OCC(=O)N2CCC(c3ccccc3)=N2)sc1C`, the “activity change, negative = inhibition” value was inactive: 5.66%. For `COc1ccc(/C=N/NC(=O)OC(C)(C)C)cc1OC`, the Potency was inconclusive: 13.1 µM [inhibitor, partial curve]. With `COCC(C)NS(=O)(=O)c1ccccc1` (configuration not stated) the “activity change, negative = inhibition” value was inactive: -0.18%. With `COc1cc2c(cc1OC)C(c1cccs1)N(C(=O)c1cccc(S(=O)(=O)N(C)C)c1)CC2` (configuration not stated) the Potency was inconclusive: 10.4 µM [inhibitor, single point]. With `Cc1ccc(C(OCC(O)CNCc2ccc(F)cc2)c2ccccc2)cc1` (configuration not stated) the Potency was active: 4.65 µM. In the case of `O=C(/C=C/c1ccc([N+](=O)[O-])cc1)NCc1ccco1`, the Potency was inconclusive: 13.1 µM [inhibitor, single point]. For `COc1ccc(NC(=O)CCCC(=O)c2ccccc2)cc1OC`, the “activity change, negative = inhibition” value was inactive: 0%. In the case of `OC1=C(O)c2nc3cc(C(F)(F)F)ccc3nc21`, the “activity change, negative = inhibition” value was inactive: -8.06%. With `CCOC(=O)C1(Cc2cccc(OC)c2)CCN(Cc2cccc(OC)c2OC)CC1` the Potency was inconclusive: 1.65 µM [inhibitor, partial curve, poor fit]. For `Cc1coc2c1c(C)cc1oc(=O)c(Cc3ccccc3)c(C)c12`, the Potency was inconclusive: 18.5 µM [inhibitor, partial curve, poor fit]. In the case of `COc1ccc(C(CNC(=O)COc2ccc(F)cc2Cl)N2CCCCC2)cc1` (configuration not stated), the Potency was inconclusive: 14.7 µM [inhibitor, partial curve, poor fit]. For `COc1ccc(C2/C(=C(/O)c3ccccc3)C(=O)C(=O)N2C)cc1OC` (configuration not stated), the Potency was inconclusive: 18.5 µM [inhibitor, single point]. With `Cc1ccccc1Nc1n[nH]c(C)c1[N+](=O)[O-]` the Potency was active: 3.7 µM. With `Cc1cc(Br)ccc1NC(=O)C(C)c1ccc([N+](=O)[O-])cc1` (configuration not stated) the Potency was inconclusive: 0.0029 µM [inhibitor, full curve, poor fit]. In the case of `O=C(CN(C(=O)CSc1nc2ccccc2o1)c1ccccc1F)NC1CCCCC1`, the “activity change, negative = inhibition” value was inactive: 145%. With `COc1ccc(CN(C)C(=O)C2CCN(C(=O)Nc3ccccc3)CC2)cc1OC` the Potency was inconclusive: 14.7 µM [inhibitor, single point]. With `CCN(C(=O)CSc1nccn1C)c1cccc2ccccc12` the Potency was inconclusive: 18.5 µM [inhibitor, single point]. With `CCC1CCCCN1CCCNC(=O)CN1C(=O)COc2ccccc21` (configuration not stated) the “activity change, negative = inhibition” value was inactive: 90.9%. For `COCCn1c(-c2ccc(OC(F)(F)C(F)C(F)(F)F)cc2)nc2c1c(=O)[nH]c(=O)n2CC(C)C` (configuration not stated), the Potency was active: 6.57 µM. For `Nc1ncn(-c2ncc(C(F)(F)F)cc2Cl)n1`, the Potency was inconclusive: 18.5 µM [inhibitor, single point]. With `CN(C(=O)Nc1cnc2ccccc2c1)c1ccccc1` the “activity change, negative = inhibition” value was inactive: 34.2%. For `COc1cccc(C(=O)NOCc2ccccc2)c1OC`, the “activity change, negative = inhibition” value was inactive: 335%. For `COc1ccc(OC)c(C2=NNC(=NCc3ccc4c(c3)OCO4)SC2)c1`, the Potency was inconclusive: 10.4 µM [inhibitor, partial curve]. With `NCCc1ccc(S(N)(=O)=O)cc1` the “activity change, negative = inhibition” value was inactive: 5.16%. In the case of `CC(=O)Nc1ccc(S(=O)(=O)N2CCN=C2SCc2ccc([N+](=O)[O-])cc2)cc1`, the Potency was inconclusive: 13.1 µM [inhibitor, partial curve]. For `CCOc1ccc(CNc2nc3ccccc3n2CCN2CCOCC2)cc1`, the Potency was inconclusive: 18.5 µM [inhibitor, single point]. In the case of `COc1ccccc1CC(=O)O/N=C(\N)c1cccc([N+](=O)[O-])c1`, the “activity change, negative = inhibition” value was inactive: 56%. For `Cc1ccc(-n2ncc3c(N4CCN(c5ccccc5)CC4)ncnc32)c(C)c1`, the Potency was inconclusive: 18.5 µM [inhibitor, single point]. In the case of `O=C(O)[C@H](Cc1ccccc1)Nc1ccc([N+](=O)[O-])cn1`, the “activity change, negative = inhibition” value was inactive: 38%. With `COc1cc2c3c(c1)C(C)=CC(C)(C)N3C(=O)C2=O` the “activity change, negative = inhibition” value was inactive: 32.8%. With `Cc1coc2cc3oc(=O)ccc3cc12` the “activity change, negative = inhibition” value was inactive: 43.7%. With `COc1ccc(-c2nc3ccccn3c2CN2CCN(c3ccccc3F)CC2)cc1` the Potency was inconclusive: 11.7 µM [inhibitor, single point]. With `COc1ccc(CCNC(=O)C2CCC(=O)N2S(=O)(=O)c2ccc(C)cc2)cc1` (configuration not stated) the Potency was inconclusive: 14.7 µM [inhibitor, single point]. With `O=C(Nc1cccc(C(=O)NC2CC2)c1)c1ccc(F)c(S(=O)(=O)N2CCOCC2)c1` the Potency was inconclusive: 18.5 µM [inhibitor, single point]. For `CCOC(=O)c1[nH]c2ccc(OCC)cc2c1NC(=O)CN1CCN(c2ccccc2)CC1`, the “activity change, negative = inhibition” value was inactive: 51.2%. With `COc1ccc(CN(C)C(=O)c2cc(S(=O)(=O)N3CCCCCC3)ccc2OC)cc1OC` the Potency was inconclusive: 0.928 µM [inhibitor, partial curve, poor fit]. In the case of `Cc1noc(C)c1-c1nc(CS(=O)(=O)c2ccc(F)cc2)no1`, the “activity change, negative = inhibition” value was inactive: 46.4%. For `COc1ccc(C(=O)Nc2ccc(C)cn2)cc1S(=O)(=O)N1CCCc2ccccc21`, the Potency was inconclusive: 1.17 µM [inhibitor, full curve]. In the case of `CC(C(c1cccs1)c1c(N)n(C)c(=O)n(C)c1=O)[N+](=O)[O-]` (configuration not stated), the Potency was inconclusive: 9.28 µM [inhibitor, partial curve, poor fit]. With `COc1ccccc1NC(=O)C1=C(C)Nc2nc(-c3ccc(N(C)C)cc3)nn2C1c1ccncc1` (configuration not stated) the Potency was active: 9.28 µM. In the case of `CCOc1ccc([N+](=O)[O-])cc1CNC1CCCCCCC1`, the Potency was inconclusive: 18.5 µM [inhibitor, single point]. With `CCCOc1ccc(C(=O)NCC(c2ccco2)N(C)C)cc1` (configuration not stated) the Potency was inconclusive: 18.5 µM [inhibitor, single point]. For `CC1CCCC(NC(=O)COC(=O)c2cc(S(=O)(=O)N3CCCCC3)ccc2N2CCOCC2)C1C` (configuration not stated), the Potency was active: 5.22 µM. For `COc1cccc(OCCOc2c(OC)cccc2OC)c1`, the Potency was inconclusive: 6.57 µM [inhibitor, single point]. For `Nc1nonc1-n1nnc(C(=O)N/N=C/c2cccc(F)c2)c1-c1ccccc1`, the Potency was inconclusive: 13.1 µM [inhibitor, single point]. In the case of `O=C(OCC(=O)N1CCCCCC1)c1ccc(Cl)c(S(=O)(=O)N2CCCC2)c1`, the Potency was inconclusive: 1.17 µM [inhibitor, partial curve, poor fit]. In the case of `Cc1ncoc1C(=O)N1CCCC(N2CCN(c3ccccc3F)CC2)C1` (configuration not stated), the Potency was inconclusive: 18.5 µM [inhibitor, single point]. In the case of `CCN(CC)S(=O)(=O)c1ccc(N=Cc2c(O)n(-c3ccccc3)c(=O)[nH]c2=O)cc1`, the Potency was inconclusive: 13.1 µM [inhibitor, partial curve, poor fit].
